Source: the M2OR odorant receptor database
Only a part is listed here, and it is no random draw. Calls are pooled over several reports, among them a noisy single-well screen. The list shows a part of the results. The list shows a part of the results.

Chains of the proteins cited; added tags and fusions are not shown. Where a name states a change or a piece, a line headed by the entry shows the natural chain unless it says otherwise. A line that says so, or that is headed by a name, gives the form on record, which may keep a tag or linker.
UniProt Q8NGT2: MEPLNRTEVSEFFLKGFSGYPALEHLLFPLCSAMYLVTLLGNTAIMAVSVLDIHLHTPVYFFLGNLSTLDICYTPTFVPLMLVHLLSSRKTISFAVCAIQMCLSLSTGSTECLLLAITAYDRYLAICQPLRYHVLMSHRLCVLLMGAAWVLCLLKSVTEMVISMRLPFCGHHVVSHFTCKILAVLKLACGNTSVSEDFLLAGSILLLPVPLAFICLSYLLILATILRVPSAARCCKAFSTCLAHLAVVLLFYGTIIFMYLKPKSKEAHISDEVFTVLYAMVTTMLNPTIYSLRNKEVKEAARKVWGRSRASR
UniProt Q8NHC5: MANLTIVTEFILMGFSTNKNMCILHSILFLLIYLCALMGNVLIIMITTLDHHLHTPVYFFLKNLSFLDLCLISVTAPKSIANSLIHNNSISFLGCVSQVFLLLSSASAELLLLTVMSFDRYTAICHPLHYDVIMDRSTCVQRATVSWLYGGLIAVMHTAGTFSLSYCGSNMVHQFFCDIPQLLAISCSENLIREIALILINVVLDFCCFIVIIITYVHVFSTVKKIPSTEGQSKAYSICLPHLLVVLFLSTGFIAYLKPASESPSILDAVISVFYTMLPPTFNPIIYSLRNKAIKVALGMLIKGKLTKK
UniProt Q8NHC7: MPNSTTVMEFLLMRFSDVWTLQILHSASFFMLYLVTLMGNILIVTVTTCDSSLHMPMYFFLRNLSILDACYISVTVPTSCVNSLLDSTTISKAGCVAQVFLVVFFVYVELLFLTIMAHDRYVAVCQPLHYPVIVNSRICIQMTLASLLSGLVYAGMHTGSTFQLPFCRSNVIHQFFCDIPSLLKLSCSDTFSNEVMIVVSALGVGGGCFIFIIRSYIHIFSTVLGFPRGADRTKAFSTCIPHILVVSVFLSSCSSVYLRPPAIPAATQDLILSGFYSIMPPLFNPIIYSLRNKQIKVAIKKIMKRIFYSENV
UniProt Q8NGZ2: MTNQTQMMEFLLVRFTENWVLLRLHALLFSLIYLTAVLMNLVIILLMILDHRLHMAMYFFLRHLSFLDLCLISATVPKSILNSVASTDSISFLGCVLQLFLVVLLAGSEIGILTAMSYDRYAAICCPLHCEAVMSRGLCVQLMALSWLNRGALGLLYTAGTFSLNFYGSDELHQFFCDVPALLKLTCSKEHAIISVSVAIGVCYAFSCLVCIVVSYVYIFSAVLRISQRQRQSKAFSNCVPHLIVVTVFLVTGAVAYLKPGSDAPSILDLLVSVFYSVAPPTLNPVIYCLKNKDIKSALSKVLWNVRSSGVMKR
UniProt Q8NHC6, as listed by the source: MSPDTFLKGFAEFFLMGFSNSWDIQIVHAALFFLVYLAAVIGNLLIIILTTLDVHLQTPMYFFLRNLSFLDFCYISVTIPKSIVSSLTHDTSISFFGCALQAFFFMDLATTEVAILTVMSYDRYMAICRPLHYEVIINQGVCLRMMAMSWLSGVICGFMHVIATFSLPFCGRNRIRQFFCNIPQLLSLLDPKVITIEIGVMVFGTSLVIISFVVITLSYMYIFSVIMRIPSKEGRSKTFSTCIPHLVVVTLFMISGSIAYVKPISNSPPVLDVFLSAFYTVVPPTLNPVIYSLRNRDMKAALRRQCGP
OR1A1 A106T, as listed by the source, stated change not applied: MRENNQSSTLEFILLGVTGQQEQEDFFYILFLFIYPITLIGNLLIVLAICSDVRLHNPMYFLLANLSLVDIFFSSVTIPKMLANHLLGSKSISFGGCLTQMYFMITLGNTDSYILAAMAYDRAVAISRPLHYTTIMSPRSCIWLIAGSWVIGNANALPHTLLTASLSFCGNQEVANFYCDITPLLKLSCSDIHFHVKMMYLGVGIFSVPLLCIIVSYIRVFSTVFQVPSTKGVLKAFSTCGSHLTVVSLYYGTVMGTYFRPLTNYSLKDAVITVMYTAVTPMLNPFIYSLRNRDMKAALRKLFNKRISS
OR1A1 A106G, as listed by the source, stated change not applied: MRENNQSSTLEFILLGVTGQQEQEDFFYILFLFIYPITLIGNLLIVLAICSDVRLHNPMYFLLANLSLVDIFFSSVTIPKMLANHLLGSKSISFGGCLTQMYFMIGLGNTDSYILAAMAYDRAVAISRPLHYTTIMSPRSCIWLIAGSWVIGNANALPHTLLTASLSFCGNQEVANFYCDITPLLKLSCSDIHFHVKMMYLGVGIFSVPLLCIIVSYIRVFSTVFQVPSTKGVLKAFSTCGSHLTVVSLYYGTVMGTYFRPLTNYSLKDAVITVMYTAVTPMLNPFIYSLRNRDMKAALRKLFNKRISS
OR1A1 D111A, as listed by the source, stated change not applied: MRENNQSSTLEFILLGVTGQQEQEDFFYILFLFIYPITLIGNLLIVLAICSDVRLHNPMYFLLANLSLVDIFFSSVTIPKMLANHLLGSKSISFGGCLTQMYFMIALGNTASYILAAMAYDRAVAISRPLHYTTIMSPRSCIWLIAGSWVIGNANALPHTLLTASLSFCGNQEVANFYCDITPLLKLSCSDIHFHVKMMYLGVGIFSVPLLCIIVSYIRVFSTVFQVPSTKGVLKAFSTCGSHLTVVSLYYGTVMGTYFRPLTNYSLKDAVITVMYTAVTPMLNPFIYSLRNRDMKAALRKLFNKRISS
OR1A1 G108A, as listed by the source, stated change not applied: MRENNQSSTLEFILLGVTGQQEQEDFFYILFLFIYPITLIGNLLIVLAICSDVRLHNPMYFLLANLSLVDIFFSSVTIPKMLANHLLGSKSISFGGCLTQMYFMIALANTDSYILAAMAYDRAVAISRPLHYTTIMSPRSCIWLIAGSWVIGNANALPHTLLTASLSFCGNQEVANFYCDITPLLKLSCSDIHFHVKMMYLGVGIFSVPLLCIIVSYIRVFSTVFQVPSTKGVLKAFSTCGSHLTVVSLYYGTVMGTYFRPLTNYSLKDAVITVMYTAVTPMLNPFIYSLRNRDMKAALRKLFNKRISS
OR1A1 D111S, as listed by the source, stated change not applied: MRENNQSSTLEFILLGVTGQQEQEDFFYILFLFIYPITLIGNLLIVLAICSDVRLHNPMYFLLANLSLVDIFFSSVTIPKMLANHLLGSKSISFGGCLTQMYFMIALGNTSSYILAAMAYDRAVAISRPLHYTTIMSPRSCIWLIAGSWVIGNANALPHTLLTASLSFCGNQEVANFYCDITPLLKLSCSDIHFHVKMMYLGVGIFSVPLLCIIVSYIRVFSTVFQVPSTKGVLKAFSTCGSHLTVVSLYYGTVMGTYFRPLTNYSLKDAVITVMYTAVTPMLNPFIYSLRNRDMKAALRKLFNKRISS

Columns and labels:
Conditions in all cases: stereoisomer not certain
[1] = target: T1, OR14J1 (Homo sapiens) (UniProt Q9UGF5)
T1 sequence (whole entry): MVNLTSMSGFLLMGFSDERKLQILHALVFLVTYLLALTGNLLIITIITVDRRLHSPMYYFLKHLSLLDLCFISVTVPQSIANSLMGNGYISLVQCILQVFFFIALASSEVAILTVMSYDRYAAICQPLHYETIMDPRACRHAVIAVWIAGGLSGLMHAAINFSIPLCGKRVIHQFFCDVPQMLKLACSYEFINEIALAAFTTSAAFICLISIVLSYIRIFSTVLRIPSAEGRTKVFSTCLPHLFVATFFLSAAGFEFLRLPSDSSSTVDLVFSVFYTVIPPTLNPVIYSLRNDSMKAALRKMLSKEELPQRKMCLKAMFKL
Procedure, shortened: (§1)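 Values were gathered from published papers (main text and supplementary material), with extra details requested from the original authors when needed, and checked for typos and inconsistencies. Each receptor–molecule pair is called responsive (active) if the original authors judged the measured signal statistically different from baseline, and non-responsive (inactive) otherwise. Assay methods varied by source, often transient mammalian cell-line luciferase assays. Recorded details include cell line, G-protein, co-transfected protein and tags.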

[2] = target: T2, OR1A1 (Homo sapiens) (UniProt Q9P1Q5)
T2 sequence (whole entry): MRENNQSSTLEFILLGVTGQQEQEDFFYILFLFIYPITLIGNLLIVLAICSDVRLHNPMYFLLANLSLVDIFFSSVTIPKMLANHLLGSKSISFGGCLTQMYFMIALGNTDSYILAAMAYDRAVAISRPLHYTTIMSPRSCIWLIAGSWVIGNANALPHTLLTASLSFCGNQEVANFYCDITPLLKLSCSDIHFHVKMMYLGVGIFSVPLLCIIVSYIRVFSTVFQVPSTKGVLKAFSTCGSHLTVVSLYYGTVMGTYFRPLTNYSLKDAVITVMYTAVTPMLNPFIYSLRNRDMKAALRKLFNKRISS
Procedure, shortened: as §1

[3] = target: OR13J1 (Homo sapiens) (UniProt Q8NGT2)
Procedure, shortened: as §1

[4] = target: OR14A16 (Homo sapiens) (UniProt Q8NHC5)
Procedure, shortened: as §1

[5] = target: OR14C36 (Homo sapiens) (UniProt Q8NHC7)
Procedure, shortened: as §1

[6] = target: OR14K1 (Homo sapiens) (UniProt Q8NGZ2)
Procedure, shortened: as §1

[7] = target: OR14L1 (Homo sapiens) (UniProt Q8NHC6)
Procedure, shortened: as §1

[8] = target: OR1A1 (Pan troglodytes) (UniProt Q9TUA7)
Procedure, shortened: as §1

[9] = test system: OR1A1 A106G
Procedure, shortened: as §1

[10] = test system: OR1A1 A106T
Procedure, shortened: as §1

[11] = test system: OR1A1 D111A T280A
Procedure, shortened: as §1

[12] = test system: OR1A1 D111A
Procedure, shortened: as §1

[13] = test system: OR1A1 D111S T280A
Procedure, shortened: as §1

[14] = test system: OR1A1 D111S
Procedure, shortened: as §1

[15] = test system: OR1A1 G108A G152A I205V
Procedure, shortened: as §1

[16] = test system: OR1A1 G108A G152A
Procedure, shortened: as §1

[17] = test system: OR1A1 G108A I205V
Procedure, shortened: as §1

[18] = test system: OR1A1 G108A N109K
Procedure, shortened: as §1

[19] = test system: OR1A1 G108A
Procedure, shortened: as §1

[20] = test system: OR1A1 G152A I205V
Procedure, shortened: as §1

## CC(=O)C(C)=O
[1]
  odorant receptor agonist call: inactive
[2]
  odorant receptor agonist call: inactive

## COC(=O)c1ccccc1
[1]
  odorant receptor agonist call: inactive
[2]
  odorant receptor agonist call: inactive

## CC12CCC(CC1)C(C)(C)O2
[1]
  odorant receptor agonist call: inactive
[2]
  odorant receptor agonist call: inactive

## COc1cc(C=O)ccc1O
[1]
  odorant receptor agonist call: inactive
[2]
  odorant receptor agonist call: inactive

## C=CC(C)(O)CCC=C(C)C (centres undefined)
[1]
  odorant receptor agonist call: inactive
[2]
  odorant receptor agonist call: inactive

## CCCC(=O)O
[1]
  odorant receptor agonist call: inactive
[2]
  odorant receptor agonist call: inactive

## CC(C)CCC(=O)O
[1]
  odorant receptor agonist call: inactive
[2]
  odorant receptor agonist call: inactive

## CC(=O)OC(C)(C)C1CC=C(C)CC1 (centres undefined)
[1]
  odorant receptor agonist call: inactive
[2]
  odorant receptor agonist call: active

## CC12CCC(C1)C(C)(C)C2=O (centres undefined)
[1]
  odorant receptor agonist call: inactive
[2]
  odorant receptor agonist call: inactive

## CC1CCC(C(C)C)C(O)C1 (centres undefined)
[1]
  odorant receptor agonist call: inactive
[2]
  odorant receptor agonist call: active

## COc1ccccc1O
[1]
  odorant receptor agonist call: inactive
[2]
  odorant receptor agonist call: inactive

## CCCCCCCCCC=O
[1]
  odorant receptor agonist call: inactive
[2]
  odorant receptor agonist call: inactive

## CC12C=CCC1C1CCC3CC(=O)CCC3(C)C1CC2 (centres undefined)
[3]
  odorant receptor agonist call: inactive
[4]
  odorant receptor agonist call: inactive
[5]
  odorant receptor agonist call: inactive
[1]
  odorant receptor agonist call: inactive
[6]
  odorant receptor agonist call: inactive
[7]
  odorant receptor agonist call: inactive
[2]
  odorant receptor agonist call: inactive

## CCCCCCCOC(C)=O
[1]
  odorant receptor agonist call: inactive
[2]
  odorant receptor agonist call: inactive

## CCCCCC(C)=O
[1]
  odorant receptor agonist call: inactive
[2]
  odorant receptor agonist call: active

## O=CCc1ccccc1
[1]
  odorant receptor agonist call: inactive
[2]
  odorant receptor agonist call: inactive

## CC(C)C(=O)O
[1]
  odorant receptor agonist call: inactive
[2]
  odorant receptor agonist call: inactive

## CC(=O)c1ccccc1
[1]
  odorant receptor agonist call: inactive
[2]
  odorant receptor agonist call: inactive

## CC(=O)OCC=C(C)CCC=C(C)C
[1]
  odorant receptor agonist call: inactive
[2]
  odorant receptor agonist call: inactive

## CC12C=CCC1C1CCC3=CC(=O)CCC3(C)C1CC2 (centres undefined)
[1]
  odorant receptor agonist call: inactive
[2]
  odorant receptor agonist call: inactive

## C=CCSCC=C
[1]
  odorant receptor agonist call: inactive
[2]
  odorant receptor agonist call: inactive

## CC=Cc1ccc(O)c(OC)c1
[1]
  odorant receptor agonist call: inactive

## CCCCCCCC=O
[1]
  odorant receptor agonist call: inactive
[2]
  odorant receptor agonist call: inactive

## CC(C)=CCCC(C)=CC=O
[1]
  odorant receptor agonist call: inactive
[2]
  odorant receptor agonist call: active

## CC(C)C=O
[1]
  odorant receptor agonist call: inactive
[2]
  odorant receptor agonist call: inactive

## CC(C)(C)c1ccc(CCC=O)cc1
[1]
  odorant receptor agonist call: inactive
[2]
  odorant receptor agonist call: inactive

## C=C(C)C1CC=C(C)C(=O)C1 (centres undefined)
[8]
  odorant receptor agonist call: inactive
[9]
  odorant receptor agonist call: active
[10]
  odorant receptor agonist call: active
[11]
  odorant receptor agonist call: inactive
[12]
  odorant receptor agonist call: active
[13]
  odorant receptor agonist call: active
[14]
  odorant receptor agonist call: active
[15]
  odorant receptor agonist call: active
[16]
  odorant receptor agonist call: active
[17]
  odorant receptor agonist call: active
[18]
  odorant receptor agonist call: inactive
[19]
  odorant receptor agonist call: active
[20]
  odorant receptor agonist call: active
